Drawing on PubChem BioAssay AID210 (DTP/NCI, 2004), this text covers survivor count and T/C for 23 compounds.

The list does not hold the whole screen: it gathers tests that were run many times, whatever their T/C, doses with no T/C, and many T/C values between a quarter and a half above the control. Other doses and runs of a compound stand elsewhere. T/C gives the treated animals as a percentage of the vehicle group. Some doses have a count of surviving animals in place of a T/C: the source holds a T/C of zero for them, seemingly a mark for toxic or unscored doses. Some doses without a T/C left all or most animals alive at the check, yet need not have been tolerated: survival well below the control is almost never listed, so the zero probably covers shortened survival too. Survivors were counted at the toxicity check, usually on the fifth day, unless a day is given; later deaths do not show. Schedule codes are those of the source, taken here to give the interval after Q, in days (D) or hours (H), and the number of doses after X. Some entries hold several experiments; their values stand side by side, smallest first. For survival time, the PubChem record calls one and a half times the control and up active, and a quarter to a half above the control has no call in these data; cut-offs in other NCI protocols can differ. Some T/C values carry the count of animals alive at the toxicity check (mostly the fifth day); where none is given, no animal had died by that day. *1 amine or outer side, *2 acyl side, *3 side chain or, on linkers, in order; H or OH if unused. Where a SMILES comes first, the peptide text is derived from it. Bridges are numbered along the chain shown (N, C = ends). Roman numbers before positions name the chains, in order. [ ]: non-standard residue; d: D form. Actinocin(9to1) = Cc1c2oc3c(C)ccc(C(=O)[*:1])c3nc-2c(C(=O)[*:2])c(N)c1=O; aThr = C[C@H](O)[C@H](N)C(=O)O; NMeV = CN[C@H](C(=O)O)C(C)C; Sar = CNCC(=O)O

The test deals with CD2F1 mice, ip Colon 26 adenocarcinoma, median survival T/C. Briefly: NCI In Vivo Anticancer Drug Screen. Data for tumor model Colon 26 Adenocarcinoma (intraperitoneal) in CD2F1 (CDF1) mice. The settings on record: T/C endpoint: median survival time, higher T/C = longer survival. As to the method: The antitumor activity of compounds was measured in mice bearing transplantable tumors. Survival or tumor size were measured and the results are expressed as the measurement made in the treated group (T) divided by the measurement made in the vehicle treated control group (C). The tumor model used in this assay is Colon 26 Adenocarcinoma (intraperitoneal) in CD2F1 (CDF1) mice

The mark [1] stands for this setting: dose: 25.0 mg/kg/injection, schedule: Q04DX003 (ip), vehicle: saline with Tween-80.
Setting [2] is: dose: 20.0 mg/kg/injection, schedule: Q04DX003 (ip), vehicle: saline.
Where [3] appears, read: dose: 400.0 mg/kg/injection, schedule: Q04DX003 (ip), vehicle: saline with Tween-80.
[4] abbreviates: dose: 200.0 mg/kg/injection, schedule: Q04DX003 (ip), vehicle: saline with Tween-80.
Setting [5] is: dose: 1000.0 micrograms/kg/injection, schedule: Q01DX001 (ip), vehicle: saline + alcohol.

For `Cc1cn(C2CC(O)C(CO)O2)c(=O)[nH]c1=O` (stereo not drawn), the survivor count (dose: 64.0 mg/kg/injection, schedule: Q04DX002 (ip), vehicle: saline) is 10 of 10; the survivor count (dose: 256.0 mg/kg/injection, schedule: Q04DX002 (ip), vehicle: saline) was 10 of 10; the survivor count (dose: 512.0 mg/kg/injection, schedule: Q04DX002 (ip), vehicle: saline) is given as 10 of 10.

For `COC(C(=O)C(O)C(C)O)C1CC2C=C3C=C(OC4CC(OC5CC(O)C(OC)C(C)O5)C(OC(C)=O)C(C)O4)C(C)C(=O)C3=C(O)C2=C(O)C1OC1CC(OC2CC(OC3CC(C)(O)C(O)C(C)O3)C(O)C(C)O2)C(O)C(C)O1` (stereo not drawn), the survivor count (dose: 16.0 mg/kg/injection, schedule: Q04DX003 (ip), vehicle: saline with Tween-80) is recorded as 10 of 10.

With `CC[N+](CC)(CC)CC`, the T/C is 129 % of control (dose: 6.25 mg/kg/injection, schedule: Q04DX003 (ip), vehicle: saline with Tween-80); 145 % of control (dose: 12.5 mg/kg/injection, schedule: Q04DX003 (ip), vehicle: saline with Tween-80); 127 % of control under setting [1]. The survivor count under setting [1] is 10 of 10.

Take `CN1C(=O)CC2(CCN(CCCC(=O)c3ccc(F)cc3)CC2)C1=O`: under “dose: 100.0 mg/kg/injection, schedule: Q04DX003 (ip), vehicle: saline with Tween-80”, the survivor count is on record as 3 of 10.

Turning to `c1cc[c]([Sn][c]2ccccc2)cc1`, under “dose: 10.0 mg/kg/injection, schedule: Q04DX003 (ip), vehicle: saline with Tween-80”, the T/C is 126 % of control [8 of 10 alive]. Also, the survivor count is 0 of 10 (dose: 20.0 mg/kg/injection, schedule: Q04DX003 (ip), vehicle: saline with Tween-80) and 0 of 10 under setting [2].

Consider `Cc1ncc([N+](=O)[O-])n1CCSC(N)=O`, for which the survivor count (dose: 50.0 mg/kg/injection, schedule: Q04DX003 (ip), vehicle: saline with Tween-80) was 10 of 10 and the survivor count under setting [3] is listed as 10 of 10.

Regarding `CC1CCC(NC(=O)N(CCCl)N=O)CC1` (stereo not drawn), the survivor count (dose: 40.0 mg/kg/injection, schedule: Q04DX003 (ip), vehicle: Klucel (hydroxypropylcellulose) (HPC)) is 10 of 10.

For `CCC1OCC(C(Cl)CCl)O1` (stereo not drawn), the survivor count (dose: 400.0 mg/kg/injection, schedule: Q04DX003 (ip), vehicle: Klucel (hydroxypropylcellulose) (HPC)) was 9 of 10.

`Cc1cc(C)c(-c2cc(O)c(C)cc2O)c(C)c1`: the survivor count under setting [3] was 10 of 10.

Turning to `CC/C(=C(/CC)c1ccc(O)cc1)c1ccc(O)cc1`, under setting [4], the survivor count is 10 of 10.

On to `C=C1C(=O)OC2CC1CCC1(C)OC1CCC(C)=CCCC2(C)O` (stereo not drawn), for which the survivor count (dose: 180.0 mg/kg/injection, schedule: Q04DX002 (ip), vehicle: Klucel (hydroxypropylcellulose) (HPC)) is recorded as 6 of 10.

For the compound `C=CCNc1ccc(C)cc1`, the survivor count under setting [4] is 4 of 10.

For `COc1cc([C@@H]2c3cc4c(cc3[C@@H](OC3OC5COC(C)OC5C(O)C3O)[C@H]3COC(=O)[C@H]23)OCO4)cc(OC)c1O` (stereo partly drawn), for the setting “dose: 16.0 mg/kg/injection, schedule: Q04DX003 (ip), vehicle: saline”, the T/C was 144 % of control. Besides, the survivor count was 0 of 10 (dose: 128.0 mg/kg/injection, schedule: Q04DX003 (ip), vehicle: saline); 0 of 10 (dose: 256.0 mg/kg/injection, schedule: Q04DX003 (ip), vehicle: saline); 0 of 10 (dose: 512.0 mg/kg/injection, schedule: Q04DX003 (ip), vehicle: saline).

For `Cc1c2oc3c(C)ccc(C(=O)N[C@@H]4C(=O)N[C@H](C(C)C)C(=O)N5CCC[C@H]5C(=O)N(C)CC(=O)N(C)[C@@H](C(C)C)C(=O)O[C@H]4C)c3nc-2c(C(=O)N[C@@H]2C(=O)N[C@H](C(C)C)C(=O)N3CCC[C@H]3C(=O)N(C)CC(=O)N(C)[C@@H](C(C)C)C(=O)O[C@H]2C)c(N)c1=O` (I: [aThr][dV]P[Sar][NMeV] / II: [aThr][dV]P[Sar][NMeV]; ester I:1-I:C, II:1-II:C; linker I:N-II:N via Actinocin(9to1)), the T/C was 127 % of control (dose: 47.0 micrograms/kg/injection, schedule: Q04DX003 (ip), vehicle: saline); 127 % of control (dose: 78.0 micrograms/kg/injection, schedule: Q04DX003 (ip), vehicle: saline); 146 % of control (dose: 108.0 micrograms/kg/injection, schedule: Q04DX003 (ip), vehicle: saline + alcohol); 135 % of control (dose: 130.0 micrograms/kg/injection, schedule: Q04DX003 (ip), vehicle: saline); 147 % of control (dose: 300.0 micrograms/kg/injection, schedule: Q04DX003 (ip), vehicle: saline + alcohol). Moreover, the survivor count reads like this: (dose: 300.0 micrograms/kg/injection, schedule: Q04DX003 (ip), vehicle: saline) 10 of 10; (dose: 600.0 micrograms/kg/injection, schedule: Q04DX003 (ip), vehicle: saline) 8 of 10; under setting [5], 1 of 8.

Turning to `Cc1c2oc3c(C)c([N+](=O)[O-])cc(C(=O)NC4C(=O)NC(C(C)C)C(=O)N5CCCC5C(=O)N(C)CC(=O)N(C)C(C(C)C)C(=O)OC4C)c3nc-2c(C(=O)NC2C(=O)NC(C(C)C)C(=O)N3CCCC3C(=O)N(C)CC(=O)N(C)C(C(C)C)C(=O)OC2C)c(N)c1=O` (stereo not drawn), the T/C under setting [5] is 142 % of control. Moreover, the survivor count by setting is: (dose: 2000.0 micrograms/kg/injection, schedule: Q01DX001 (ip), vehicle: saline + alcohol) 1 of 8; (dose: 4000.0 micrograms/kg/injection, schedule: Q01DX001 (ip), vehicle: saline + alcohol) 1 of 8.

For `C=C1C(=O)C23C(O)CC4C5(C)CCCC4(C(O)OC5)C2C(OC(C)=O)CC1C3O` (stereo not drawn), the survivor count was 9 of 10 (dose: 128.0 mg/kg/injection, schedule: Q04DX002 (ip), vehicle: saline with Tween-80) and 5 of 10 (dose: 256.0 mg/kg/injection, schedule: Q04DX002 (ip), vehicle: saline with Tween-80).

For the compound `CN(C)CCNc1ccc(NCCN(C)C)c2c1C(=O)c1ccccc1C2=O`, the T/C was 129 % of control (dose: 5.0 mg/kg/injection, schedule: Q01DX009 (ip), vehicle: acid diluted with saline); 144 % of control (dose: 20.0 mg/kg/injection, schedule: Q01DX009 (ip), vehicle: acid diluted with saline); 138 % of control (dose: 40.0 mg/kg/injection, schedule: Q01DX009 (ip), vehicle: acid diluted with saline). For the same compound, the survivor count (dose: 80.0 mg/kg/injection, schedule: Q01DX009 (ip), vehicle: acid diluted with saline) is 7 of 10, 8 of 10, 10 of 10.

With `CCC[CH2][Hg][Cl]`, the survivor count by setting is: (dose: 12.5 mg/kg/injection, schedule: Q04DX003 (ip), vehicle: Klucel (hydroxypropylcellulose) (HPC)) 8 of 10; (dose: 25.0 mg/kg/injection, schedule: Q04DX003 (ip), vehicle: Klucel (hydroxypropylcellulose) (HPC)) 1 of 10; (dose: 50.0 mg/kg/injection, schedule: Q04DX003 (ip), vehicle: Klucel (hydroxypropylcellulose) (HPC)) 0 of 10.

As to `CCC1CN2C(=N1)c1ccccc1-c1cc(Cl)ccc12` (stereo not drawn), the T/C is 125 % of control (dose: 1.25 mg/kg/injection, schedule: Q04DX003 (ip), vehicle: saline); 141 % of control under setting [2]; 125 % of control (dose: 20.0 mg/kg/injection, schedule: Q04DX003 (ip), vehicle: suspension in saline). The survivor count (dose: 80.0 mg/kg/injection, schedule: Q04DX003 (ip), vehicle: suspension in saline) is recorded as 8 of 10.

For `Nc1ncnc2c1ccn2C1OC(CO)C(O)C1O` (stereo not drawn), the survivor count reads like this: (dose: 8.0 mg/kg/injection, schedule: Q04DX003 (ip), vehicle: Klucel (hydroxypropylcellulose) (HPC)) 5 of 10; (dose: 16.0 mg/kg/injection, schedule: Q04DX003 (ip), vehicle: Klucel (hydroxypropylcellulose) (HPC)) 0 of 10.

With `CCc1c(CC(=O)O)c2cc(C)ccc2n1Cc1ccc(Cl)cc1`, under “dose: 200.0 mg/kg/injection, schedule: Q04DX003 (ip), vehicle: Klucel (hydroxypropylcellulose) (HPC)”, the survivor count is reported as 10 of 10.

In the case of `CN(C)CCCNc1ccc(NCCCN(C)C)c2c1C(=O)c1ccccc1C2=O`, the survivor count (dose: 64.0 mg/kg/injection, schedule: Q01DX009 (ip), vehicle: saline) was 8 of 10.

With `O=C(N/N=C\c1cc(Br)cc(Br)c1O)N/N=C/c1cc(Br)cc(Br)c1O`, under setting [3], the T/C is 129 % of control.
